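Genome-wide siRNA knockdown in TC32 Ewing sarcoma cells, comparing luciferase light from an NR0B1-promoter reporter with a CMV-promoter reporter 48 hours after transfection.
Each siRNA was applied at 20 nM.
A z-score of the log NR0B1-over-CMV signal, less the median of siRNAs with the same seed; more negative means a stronger specific loss of the NR0B1 reporter.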

The strongest results of the screen are mostly left out here.
Sequences are the guide (antisense) strand, without overhang.

strand: UGUUCUAGCACGUUCAUCC
target gene: NLRC4
seed-corrected z-score: -0.2771

strand: UAAGGUUACUUCAUCAAUC
target gene: METTL18
seed-corrected z-score: -0.368

strand: AUCUGUACAAGGUCUGGUC
target gene: FANCC
seed-corrected z-score: 0.6692

strand: UUAACUUGCAGGAUAUUAG
target gene: C2orf42
seed-corrected z-score: 0.1236

strand: UUCCGUUCCUUUUUCAGCU
target gene: C7orf50
seed-corrected z-score: 0.07667

strand: UUAGGAGCAAGUAAGAAGC
target gene: LINC00961
seed-corrected z-score: -0.5308

strand: UUCUCUUUCAUUGAAAAAG
target gene: SOX1
seed-corrected z-score: 0.7565

strand: UGACAGACUUGGAGCAUCC
target gene: GPR179
seed-corrected z-score: -0.2962

strand: UCUUGUUCCUGGUAUUUCC
target gene: RRAS
seed-corrected z-score: 0.3304

strand: UACGAGGUGAUAUAUCUUG
target gene: SLC25A51P1
seed-corrected z-score: 0.09132

strand: UGUGCAUCUGGGUUAAGGC
target gene: ADGRG7
seed-corrected z-score: 0.3216

strand: UUCGUGAUUAUUAAUACGC
target gene: MDN1
seed-corrected z-score: 0.09546

strand: AAUCUUUUCACGCCUUCUG
target gene: RGS10
seed-corrected z-score: 0.2322

strand: UCAAUGAUCAUCGUGGUCC
target gene: CRMP1
seed-corrected z-score: -0.0132

strand: UAAUAAACAGAGUACAUCC
target gene: RBM19
seed-corrected z-score: 0.1037

strand: UAUAGGUAUUGCUAUAGUC
target gene: HPS3
seed-corrected z-score: -0.3391

strand: UAAUCUCGUACCUUCUUUC
target gene: ARL13A
seed-corrected z-score: 1.12

strand: UUCCAUCCAAUUUCCAGUG
target gene: C1orf158
seed-corrected z-score: -0.7705

strand: UCUGAGAUUUCUACAAGAC
target gene: RFC3
seed-corrected z-score: 0.01749

strand: UAGGUUUCUCUGGUAACUG
target gene: VPS36
seed-corrected z-score: -0.312

strand: UACAUAGUUAAUGAAACAG
target gene: LOC441511
seed-corrected z-score: -0.2383

strand: UUGCAUACAAAUAUUGCAG
target gene: GLIPR1L1
seed-corrected z-score: 0.6982

strand: UCACAGUGUAUUGUGAUAU
target gene: FCGR1B
seed-corrected z-score: 0.8897

strand: UUUCUCAAUACUUCCAUCA
target gene: CXCL13
seed-corrected z-score: -0.619

strand: UUUUAUGCAAGUGAUUAAG
target gene: GALR1
seed-corrected z-score: -0.7347

strand: UACAGGAUGACAUAGUAGA
target gene: KCNE2
seed-corrected z-score: 0.2908

strand: UUCCCUUCCACAAUAUCUC
target gene: ADGRD1
seed-corrected z-score: -0.7992

strand: AGAGUCAUCAGCAUUCACC
target gene: CLDN16
seed-corrected z-score: 0.6165

strand: UUUGUUUAAGAAUCAAUCC
target gene: SDR16C6P
seed-corrected z-score: 0.7432

strand: UUCCGGGAUAGAGAUAAGC
target gene: MAP7D2
seed-corrected z-score: -0.2936

strand: UUUCGUAAAAGGACUCCAG
target gene: RP9
seed-corrected z-score: 1.025

strand: UACUGGAUCAACUCUUGGG
target gene: NUDT12
seed-corrected z-score: -1.259

strand: GAGGAUGCACACUUUGAGG
target gene: LCE4A
seed-corrected z-score: 0.0114

strand: UCAUGGGAAAAUGAGACUG
target gene: PCBP2
seed-corrected z-score: -1.555

strand: AUAAGUUCGUUUUCAAUAG
target gene: MANF
seed-corrected z-score: 0.5433

strand: AACCCUUCCAUGUGCAGCU
target gene: LIN28A
seed-corrected z-score: 0.8069

Source: PubChem BioAssay AID1159506 (NCATS, 2015).